Assay results as given in article PMC7819943, “Rice protein-binding microarrays: a tool to detect cis-acting elements near promoter regions in rice”.
Some of the results follow.

Chains of the proteins cited; added tags and fusions are not shown.
UniProt Q0JBA9, entry or part of it: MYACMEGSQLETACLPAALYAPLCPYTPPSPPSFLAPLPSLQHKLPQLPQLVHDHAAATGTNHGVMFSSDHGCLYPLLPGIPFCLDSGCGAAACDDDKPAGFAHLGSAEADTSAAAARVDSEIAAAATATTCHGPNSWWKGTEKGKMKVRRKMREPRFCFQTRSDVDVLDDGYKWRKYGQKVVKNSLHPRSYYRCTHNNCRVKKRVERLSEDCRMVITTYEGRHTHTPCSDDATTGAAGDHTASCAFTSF

Biological target: OsWRKY34 (Oryza sativa, UniProt Q0JBA9 1-250)
Assay: protein-binding microarray (RPBM); PBS, 2% BSA, 51.3 ng/ul salmon testes DNA, 50 uM zinc acetate, 200 nM TF, 25 C, 1 h; high values mean tight binding
Conditions: protein: recombinant; tags: N-terminal polyhistidine and DsRed monomer fusion (pET32a); label: CyDye5-dUTP incorporated in the synthesized complementary strand; 3' TTTTT single-stranded linker to array surface; dsDNA, one strand shown
Procedure, shortened: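 Polyhistidine-tagged DsRed fusions of transcription factors, joined at the N-terminus, were expressed in E. coli BL21-CodonPlus and isolated on Ni–NTA. They were incubated at 200 nM for 1 h at 25 °C on a custom Agilent array, double-stranded and BSA-blocked, in PBS with 2% BSA, salmon testes DNA and 50 µM zinc acetate. The binding signal is per-feature fluorescence intensity (arbitrary units) read on an Axon 4000B scanner after washing.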

Sequence | binding signal
CGACAGGTCAAAACCGACATAGCAGCTATTCCTTCCATCTCGGAGTCACCTAGTGCAG | 9310 fluorescence intensity (a.u.)
CACATCTCTCTCTTTCTCTCTCTCTCTCTCTCTTCATCTACGGAGTCACCTAGTGCAG | 10700 fluorescence intensity (a.u.)
ATCACCACTTCGTCCAGGGCCTACGCACCAAATCACAATCCGGAGTCACCTAGTGCAG | 10400 fluorescence intensity (a.u.)
GTTCAGCCTCTCATCATATACTTCCACCACATTTTATAGGCGGAGTCACCTAGTGCAG | 8050 fluorescence intensity (a.u.)
TAAGGTTTATTTTGGTTATAATCTGAACAACCCCTATATCCGGAGTCACCTAGTGCAG | 12600 fluorescence intensity (a.u.)
TGCCGCACCGGTCCAACCAATCTGCTACACGGCCGGTCTACGGAGTCACCTAGTGCAG | 12300 fluorescence intensity (a.u.)
TCTGTCTCTCAGTCATAAAATTGTACTGGTATTTGATAATCGGAGTCACCTAGTGCAG | 9350 fluorescence intensity (a.u.)
TTTCTTTTCATATATTTTTGTTTATTTTCTCTCATTTCTCCGGAGTCACCTAGTGCAG | 11300 fluorescence intensity (a.u.)
CAAATTTGGTATTTCTCTCTGCTCACTCCATCCCTCAACTCGGAGTCACCTAGTGCAG | 8830 fluorescence intensity (a.u.)
ATGTAGTCCCATCTCCTTAATCATCTCAATCCCTTTATAACGGAGTCACCTAGTGCAG | 8720 fluorescence intensity (a.u.)
AATCTTTTCTCTCTTTTTTTGGTATTTCGAGAGGAGAAACCGGAGTCACCTAGTGCAG | 8920 fluorescence intensity (a.u.)
ACTTTCTTTGGTCTTACATTGCGCTGTGGATTGGTTGTGTCGGAGTCACCTAGTGCAG | 10100 fluorescence intensity (a.u.)
TTGCTTCTTGTTGCTGTTGTTCTTGGTTGGATCTTTGATGCGGAGTCACCTAGTGCAG | 9320 fluorescence intensity (a.u.)
TCCCATCATGTTCACAACTTGCTCCCTGCTTACCTGGTGACGGAGTCACCTAGTGCAG | 9010 fluorescence intensity (a.u.)
CACTCCGTTTTCTATGCGTAGGAGATTTGTTCCCATATTCCGGAGTCACCTAGTGCAG | 8330 fluorescence intensity (a.u.)
GCAGTAGTAGGTGGGTTGGTAGAGTAGAGGGGAGGATATGCGGAGTCACCTAGTGCAG | 8700 fluorescence intensity (a.u.)
GTCCTGGAGAGCTACCGCCGTCGCGCCTGTCCCTGCCTCCCGGAGTCACCTAGTGCAG | 8190 fluorescence intensity (a.u.)
ACTTGGTGGGCTCATTATTTTTTTTTTTCTGATTTTGCATCGGAGTCACCTAGTGCAG | 8100 fluorescence intensity (a.u.)
ATATCATGTCTTGGTGCAAGATCTTTATTTGTAGGAATCACGGAGTCACCTAGTGCAG | 9380 fluorescence intensity (a.u.)
CCGGTCCACCACATCCTCGGCCACACTTGACGCCTCCCTCCGGAGTCACCTAGTGCAG | 9480 fluorescence intensity (a.u.)
GTGATGTGCTGCAACCTCGCCGCCAGCCGCGCCCTGTGCGCGGAGTCACCTAGTGCAG | 8560 fluorescence intensity (a.u.)
CCTTAGCCCGACTGTCTTCAACTTCCTTCTGCAACAATTCCGGAGTCACCTAGTGCAG | 8070 fluorescence intensity (a.u.)
GCCTGATGGTCGTTGCTCACTTGTTTTTCGAAGTGATCCTCGGAGTCACCTAGTGCAG | 8850 fluorescence intensity (a.u.)
ATCTATGTCCTTATGCACTTACCTGAAATGATTGATGTCACGGAGTCACCTAGTGCAG | 12400 fluorescence intensity (a.u.)
TCATCTTAGGCAGTTCCATCCTTTTGTGCTCATCTGAACTCGGAGTCACCTAGTGCAG | 9920 fluorescence intensity (a.u.)
TAAACATAATAGCAGAAGACCTGGTAAGCATTCTTTTTTTCGGAGTCACCTAGTGCAG | 8440 fluorescence intensity (a.u.)
GCTCGTCGTTATTCCGCGGCGCCATCTTCCTCTCTCCTCCCGGAGTCACCTAGTGCAG | 8860 fluorescence intensity (a.u.)

Another view of some results above:

| Sequence | binding signal |
| --- | --- |
| GTCCTGGAGAGCTACCGCCGTCGCGCCTGTCCCTGCCTCCCGGAGTCACCTAGTGCAG | 8190 fluorescence intensity (a.u.) |
| ACTTGGTGGGCTCATTATTTTTTTTTTTCTGATTTTGCATCGGAGTCACCTAGTGCAG | 8100 fluorescence intensity (a.u.) |
| ATATCATGTCTTGGTGCAAGATCTTTATTTGTAGGAATCACGGAGTCACCTAGTGCAG | 9380 fluorescence intensity (a.u.) |
| CCGGTCCACCACATCCTCGGCCACACTTGACGCCTCCCTCCGGAGTCACCTAGTGCAG | 9480 fluorescence intensity (a.u.) |

(cont.)

Sequence | binding signal
CGGAATGATGGGGCTGTTTCTCCCTTGCGCGGCCATTGCTCGGAGTCACCTAGTGCAG | 9880 fluorescence intensity (a.u.)
GTTTTCTGTCTCTTACGTGTACCTACCCATCGTTGAAACACGGAGTCACCTAGTGCAG | 8240 fluorescence intensity (a.u.)
CGTCCGATCGGTCCGCATGTTTTTTTTGGCCGTTGATCAACGGAGTCACCTAGTGCAG | 11800 fluorescence intensity (a.u.)
TTGCCCGCGTCTCGTCGCCATCTTTGTACTACGCCAATGGCGGAGTCACCTAGTGCAG | 8180 fluorescence intensity (a.u.)
GCGCGGCGCGGCGGGACGGGGTGGGGCGAGGGCAGCAGCGCGGAGTCACCTAGTGCAG | 8520 fluorescence intensity (a.u.)
GGATTTTCTTCCGATCTCGCTTCCACCTCGCCGCCTCGCCCGGAGTCACCTAGTGCAG | 9120 fluorescence intensity (a.u.)
TATCCCTGTTGTGGCGCTGCTGCCCATGGTGACCTCCTGCCGGAGTCACCTAGTGCAG | 8350 fluorescence intensity (a.u.)
CTCTAACAGTCTGCTATTATATCTGCTCTCATGCGTCATCCGGAGTCACCTAGTGCAG | 11100 fluorescence intensity (a.u.)
CCACACTACACTGCCTCACATTTACTACACCTCTAGCTCCCGGAGTCACCTAGTGCAG | 8350 fluorescence intensity (a.u.)
AAATCTTTCCATTTCTTTTGGTTTCTTCAAAGATTTGTTTCGGAGTCACCTAGTGCAG | 8440 fluorescence intensity (a.u.)
CATGTCACATCGGATGTTTAGGCGCTAATTTAAAGTATTACGGAGTCACCTAGTGCAG | 8230 fluorescence intensity (a.u.)
GGTTGTGTGGCTAAACGTGGCTAAGTGTGTGTGTGTGCGTCGGAGTCACCTAGTGCAG | 9740 fluorescence intensity (a.u.)
GCATTATTGGGACCTATATATCTTCTTTGCCACGTACAGTCGGAGTCACCTAGTGCAG | 11900 fluorescence intensity (a.u.)
AGTCTTTTTTTTTGCTTCTTCTTCTTAAACAGATTCTTTTCGGAGTCACCTAGTGCAG | 8250 fluorescence intensity (a.u.)
ATCTATTTTGCCACTTATTAGGCGTTTAACTATTTACGACCGGAGTCACCTAGTGCAG | 9090 fluorescence intensity (a.u.)
GAGACAGTGTACCGGCCATTTGCCAGATTTGCTTCCTCAGCGGAGTCACCTAGTGCAG | 8650 fluorescence intensity (a.u.)
GCCAGGCCGTGCCAGTCCACTTGCTGCACCATTGGTCTAGCGGAGTCACCTAGTGCAG | 8160 fluorescence intensity (a.u.)
ACGTGACAACCGTTGCCTACTCATCTGACAGCATTATCCGCGGAGTCACCTAGTGCAG | 8560 fluorescence intensity (a.u.)
CACGGTTGTCCGGTTGACCATCACTCTGTCCAGCGCGTCTCGGAGTCACCTAGTGCAG | 11000 fluorescence intensity (a.u.)
AGCGGCAGGAAGTAGTCTCTGTTTTGTTTTGCTCTTCTGCCGGAGTCACCTAGTGCAG | 10700 fluorescence intensity (a.u.)
CCATTTAGATTGGTGCCATTTTAAACTATATCTTTTTCTTCGGAGTCACCTAGTGCAG | 8220 fluorescence intensity (a.u.)
TTCATATTTCACTAATGCACCTTTTGCCAGTGGCCCATCACGGAGTCACCTAGTGCAG | 11100 fluorescence intensity (a.u.)
ACATATGTCTAGATTCGTTCTACTATGAAATATTTCATCTCGGAGTCACCTAGTGCAG | 8260 fluorescence intensity (a.u.)
CATATATTTTTTCTATGTTTTGTAATTCTTTGTTTTTACACGGAGTCACCTAGTGCAG | 9840 fluorescence intensity (a.u.)
ACCATTCCTTTATTATCCACTGTAATTAAAATCGGTATGTCGGAGTCACCTAGTGCAG | 9380 fluorescence intensity (a.u.)
TCTCCTACTTCCGCGCGCAAATCGTGGATCGCCGATTCCACGGAGTCACCTAGTGCAG | 9150 fluorescence intensity (a.u.)
GCTATCCGCCGCAGCTCGGCCGTCTCCCAGCGCCGTCGCACGGAGTCACCTAGTGCAG | 8200 fluorescence intensity (a.u.)
